Source: PubChem BioAssay AID540276 (National Center for Advancing Translational Sciences (NCATS), 2011)
Hit rate of the full screen: of about 300,000 compounds, about 5,400 (1.8%) were called active. Inconclusive results, whose numbers are uncertain, are shown with a selection of clear calls. Calls come from the whole dose curve; tested in HEK293 cells. A potency beside an inconclusive call is a rough fit, not a confirmed value.

Test: qHTS for inhibitors of binding or entry into cells for Marburg Virus
Conditions: Marburg virus pseudotyped entry inhibition, cell reporter; activity change, negative = inhibition: at 37.8 µM (top of the series) unless noted
% is set by controls: 0 for no effect and ±100 for the full control effect; potency is the fitted concentration of half-maximal effect.

SMILES | Potency | activity change, negative = inhibition
Cc1ccc(OCc2nc(-c3ccccc3)no2)c(C)c1 | inconclusive: 0.708 µM [activator, single point] | 
O=C(c1cccnc1)N1CCN(S(=O)(=O)c2ccc(Cl)cc2)CC1 |  | inactive: -25.9%
CCN(c1cccc(C)c1)S(=O)(=O)c1cc(Br)cc2c1N(C(C)=O)C(C)C2 (stereo not drawn) | inconclusive: 35.5 µM [inhibitor, single point] | 
Cc1cc(C)c(O)c(-c2cc(C(=O)NCCc3ccc(S(N)(=O)=O)cc3)[nH]n2)c1 | inconclusive: 35.5 µM [inhibitor, single point] | 
CCOC(=O)CCCNC(=O)CCNC(=O)c1ccc(OCC(C)C)cc1 | inconclusive: 17.8 µM [inhibitor, partial curve, poor fit] | 
COC(=O)CCSCC(=O)N1N=C(c2ccc(Br)cc2)CC1c1cccc(OC)c1OC (stereo not drawn) | inconclusive: 6.31 µM [inhibitor, partial curve, poor fit] | 
Cc1nn2c3cc(N4CCOCC4)ccc3nc2c2ccccc12 |  | inactive: -9.17%
O=C(NC(=S)Nc1ccc2nc[nH]c2c1)c1ccccc1 |  | inactive: -0.243% [at 46.1 µM]
Cc1ccccc1CN1CCN(Cc2ccccc2C(F)(F)F)CC1 |  | inactive: 4.43%
COc1cccc(NC(=O)CN2C(=O)c3cccc4cccc2c34)c1 | inconclusive: 35.5 µM [activator, single point] | 
COc1ccc(NC(=O)c2c(C)oc3ccc(O)c(CN4CCC(C)CC4)c23)cc1Cl | inconclusive: 35.5 µM [inhibitor, single point] | 
C=C(C)c1ccc(C(C)(C)NC(=O)NCc2ccco2)cc1 | inconclusive: 1.41 µM [activator, full curve] | 
Cc1ccc(C)c(NC(=S)NNC(=O)c2csc3c2CCC(C)C3)c1 (stereo not drawn) | inconclusive: 32.6 µM [inhibitor, single point] | 
COc1ccc(-c2nnn(-c3cc(Cl)cc(Cl)c3)c2N)cc1 | inconclusive: 39.8 µM [inhibitor, partial curve, poor fit] | 
O=C(Nc1ccc(Cc2ccncc2)cc1)c1ccc([N+](=O)[O-])o1 | inconclusive: 25.1 µM [inhibitor, single point] | 
CN1CCN(Cc2cn(C)c3ccccc23)CC1CCO (stereo not drawn) | inconclusive: 10 µM [inhibitor, single point] | 
CCOC(=O)CCCCC(=O)c1[nH]c(=O)[nH]c1CSc1nnc2c3ccccc3n(C(C)C)c2n1 | inconclusive: 18.4 µM [inhibitor, single point] | 
O=C(O)COCC(=O)N1CCN(C2c3ccccc3-c3ccccc32)CC1 | inconclusive: 0.562 µM [inhibitor, full curve, poor fit] | 

3 entries from above, sorted by molecular weight, ascending:
SMILES | Potency | activity change, negative = inhibition
COc1cccc(NC(=O)CN2C(=O)c3cccc4cccc2c34)c1 | inconclusive: 35.5 µM [activator, single point] | 
O=C(O)COCC(=O)N1CCN(C2c3ccccc3-c3ccccc32)CC1 | inconclusive: 0.562 µM [inhibitor, full curve, poor fit] | 
CCOC(=O)CCCNC(=O)CCNC(=O)c1ccc(OCC(C)C)cc1 | inconclusive: 17.8 µM [inhibitor, partial curve, poor fit] | 
